Reference: patent EP2633864A1, “Clip inhibitors and methods of modulating immune function” (The Regents of the University of Colorado, priority 2008, dated 2010)
Structures can show the parent of a compound that is named as a salt. At least one peptide structure holds a part that was inferred or is arguable (an end, a ring closure or a residue). Residues, ends and D or L forms follow the SMILES beside them. No end group written: not given here. *: point of attachment. X1 = CCCCCCCCCCCCCCCC(=O)OCC(C*)OC(=O)CCCCCCCCCCCCCCC; Palmitoyl = CCCCCCCCCCCCCCCC(=O)*

How the values were obtained:
[1] = test system: Raji or Daudi cells; experiment: Effect of MKN1 (bioCLIP) on cell surface CLIP and CD74 levels; type: cell-based, human
[2] = test system: human B cell lines, Raji and Daudi; experiment: Competition of synthetic peptides with cell surface CLIP (Fitc-Anti-CLIP counter-stain); type: cell-based; conditions: biotinylated peptides, 50 microMolar
[3] = test system: mouse splenic B cells; experiment: TLR ligand induced ectopic CLIP on mouse splenic B cells in vitro (15G4 anti-CLIP/I-Ab versus B220); type: cell-based; conditions: treatment in vitro; figure 12d
[4] = test system: CLIP+ B cells of human PBMC; experiment: Peptide reversal of R848 induced ectopic CLIP on B cells in human PBMC cultures; type: cell-based; conditions: PBMC of two donors; R848 for 48 hours; VGV-hB to pre-treatment levels
[5] = test system: B6.129 (H-2^b) mice; experiment: CpG-ODN (TLR9) induced chronic hyperimmune activation in mice, with or without peptide; type: in vivo, mouse

Compound: CSCC[C@H](NC(=O)[C@H](CCCNC(=N)N)NC(=O)[C@H](CCSC)NC(=O)[C@H](CCCCN)NC(=O)[C@H](CO)NC(=O)CNC(=O)CNC(=O)CNC(=O)[C@H](CO)NC(=O)CCCC[C@@H]1SC[C@@H]2NC(=O)N[C@@H]21)C(=O)N[C@@H](C)C(=O)N[C@H](C(=O)N1CCC[C@H]1C(=O)N[C@@H](CC(C)C)C(=O)N[C@@H](CC(C)C)C(=O)N[C@@H](CCSC)C(=O)N[C@@H](CCC(N)=O)C(=O)N[C@@H](C)C(=O)N[C@@H](CC(C)C)C(=O)N[C@@H](Cc1ccc(O)cc1)C(=O)O)[C@@H](C)O [MKN.1] (HELM PEPTIDE1{[O=C1N[C@H]2[C@H](CS[C@H]2CCCCC(=O)[*:2])N1].S.G.G.G.S.K.M.R.M.A.T.P.L.L.M.Q.A.L.Y}$$$$V2.0)
- cell surface CD74 levels [1]: alters
- cell surface CLIP levels [1]: alters

Compound: CC[C@H](C)[C@H](NC(=O)[C@H](CCCNC(=N)N)NC(=O)[C@H](Cc1ccccc1)NC(=O)CNC(=O)[C@H](CO)NC(=O)[C@H](CC(N)=O)NC(=O)[C@H](C)NC(=O)CNC(=O)CNC(=O)CNC(=O)[C@H](CO)NC(=O)CCCC[C@@H]1SC[C@@H]2NC(=O)N[C@@H]21)C(=O)N[C@@H](CCSC)C(=O)N[C@@H](C)C(=O)N[C@H](C(=O)N[C@@H](CC(C)C)C(=O)N[C@@H](C)C(=O)N[C@@H](CO)C(=O)NCC(=O)NCC(=O)N[C@@H](CCC(N)=O)C(=O)N[C@@H](Cc1ccc(O)cc1)C(=O)O)C(C)C [MKN.3] (HELM PEPTIDE1{[O=C1N[C@H]2[C@H](CS[C@H]2CCCCC(=O)[*:2])N1].S.G.G.G.A.N.S.G.F.R.I.M.A.V.L.A.S.G.G.Q.Y}$$$$V2.0)
- cell surface bound CLIP ([2]; 4 hours): small decreases
- cell surface bound CLIP ([2]; 24 hours): significant decreases

Compound: CC(C)C[C@H](NC(=O)[C@H](C)NC(=O)[C@H](CCCCN)NC(=O)CNC(=O)CNC(=O)CNC(=O)[C@H](CO)NC(=O)CCCC[C@@H]1SC[C@@H]2NC(=O)N[C@@H]21)C(=O)N[C@H](C(=O)N[C@@H](CCC(N)=O)C(=O)N[C@@H](CC(N)=O)C(=O)N[C@@H](CC(=O)O)C(=O)N[C@H](C(=O)N[C@@H](CC(C)C)C(=O)N[C@@H](CC(C)C)C(=O)N[C@@H](CCC(N)=O)C(=O)N[C@H](C(=O)N[C@@H](CCCCN)C(=O)NCC(=O)O)C(C)C)[C@@H](C)O)C(C)C [MKN.5] (HELM PEPTIDE1{[O=C1N[C@H]2[C@H](CS[C@H]2CCCCC(=O)[*:2])N1].S.G.G.G.K.A.L.V.Q.N.D.T.L.L.Q.V.K.G}$$$$V2.0)
- cell surface bound CLIP ([2]; 4 hours): small decreases
- cell surface bound CLIP ([2]; 24 hours): significant decreases

Compound: CCCCCCCCCCCCCCCC(=O)N[C@@H](CSCC(COC(=O)CCCCCCCCCCCCCCC)OC(=O)CCCCCCCCCCCCCCC)C(=O)N[C@@H](CO)C(=O)N[C@@H](CCCCN)C(=O)N[C@@H](CCCCN)C(=O)N[C@@H](CCCCN)C(=O)N[C@@H](CCCCN)C(=O)O (stereo partly drawn) [Pam3Cys, (S)-(2,3-bis(palmitoyloxy)-(2RS)-propyl)-N-palmitoyl-(R)-Cys-(S)-Ser(S)-Lys4-OH, trihydrochloride] (Palmitoyl-C(X1)SKKKK-OH)
- exogenous CLIP expression on the activated mouse B cells [3]: resulted in exogenous CLIP expression

Compound: FRIMAVLAS [VGV-hB]
- level of CLIP per B cell [4]: reduced
- percentage (frequency) of CLIP+ B cells [4]: reduced
- CD4+FoxP3+ Tregs in the lymph nodes ([5]; CpG-ODN injection in vivo, without or with VGV-hB): reversible
- number of live CD4+ T cells ([5]; VGV-hB in combination with TLR 9 stimulation): moderate increase
- effect of the CpG-ODN on total cell numbers, on absolute numbers of B cells, and on CLIP+ B cell distribution between spleen and lymph node ([5]; after the addition of VGV-hB): reduced
- percent of CPG-induced CLIP+ B cells ([5]; spleen, peptide injected with CpG-ODN, 48 hours, figure 14b): reversed the effects of CPG alone
- reversal of the effects of CpG-ODN activation, including the change in the percent of CLIP+ B cells from total spleen ([5]; titration 0.25, 2.5, 25, and 50 micrograms of peptide per mouse, figure 14c, 14d): reversed
- CD8+ T cells ([5]; with CpG-ODN): promotes expansion
